Data as given in PubChem BioAssay AID1224830 (NIAID, 2016)

Purpose: 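Regulators of TLR4 signalling towards TNF-alpha in macrophage-like cells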 (primary screen)
Cell system: human THP-1 monocytic leukaemia cells, TNF dual-luciferase reporter clone, PMA-differentiated to macrophage-like cells
Reagent: siRNA pool against human genes, 50 nM
Duration: LPS for 4 h, given about 3 days after siRNA transfection
Treatment: bacterial LPS (TLR4 ligand), 10 ng/ml
Detection: 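TNF firefly reporter luminescence divided by renilla, normalised to the plate median, then turned into a robust z-score for each replicate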
Scale: TNF reporter robust z-score: higher = stronger TNF reporter response to LPS
Active means: 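Each well counts as active if its z-score is over 2.8 or under -1.5; controls are left without a call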
The whole screen tested about 18,000 reagents; shown is a part drawn at random. In the full data, about 2,900 (16%) got an active call. 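Calls are made per well; low scores hint the gene aids the LPS response, high scores that it dampens it.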 Repeated entries: four replicate wells of each siRNA pool.

The first 5 records, ahead of the listing:
TNF reporter robust z-score	activity call	Gene
-0.6	inactive	KRT4
-0.07	inactive	KRT4
-0.97	inactive	KRT4
-0.32	inactive	KRT4
0.22	inactive	SYTL5

Main list, repeating the preview:
TNF reporter robust z-score	activity call	Gene
-0.6	inactive	KRT4
-0.07	inactive	KRT4
-0.97	inactive	KRT4
-0.32	inactive	KRT4
0.22	inactive	SYTL5
0.16	inactive	SYTL5
0.77	inactive	SYTL5
1.78	inactive	SYTL5
1.03	inactive	DEFA1
0.08	inactive	DEFA1
0.85	inactive	DEFA1
0.57	inactive	DEFA1
-0.9	inactive	SPATC1L
-0.14	inactive	SPATC1L
0.55	inactive	SPATC1L
-0.65	inactive	SPATC1L
-0.2	inactive	CCNE2
0.12	inactive	CCNE2
0.32	inactive	CCNE2
0.81	inactive	CCNE2
-0.99	inactive	VIM
-1.1	inactive	VIM
-0.13	inactive	VIM
-0.52	inactive	VIM
-0.77	inactive	AK2
-0.2	inactive	AK2
-0.61	inactive	AK2
0.49	inactive	AK2
0.2	inactive	APIP
0.26	inactive	APIP
0.43	inactive	APIP
0.36	inactive	APIP
-0.6	inactive	ZNF391
-0.16	inactive	ZNF391
-1.08	inactive	ZNF391
-0.03	inactive	ZNF391
-1.2	inactive	MAGEC2
-0.94	inactive	MAGEC2
-1.28	inactive	MAGEC2
-1.01	inactive	MAGEC2
-0.33	inactive	KCNK10
0.15	inactive	KCNK10
-0.25	inactive	KCNK10
0.25	inactive	KCNK10
-2.11	active	TYR
-1.53	active	TYR
-1.36	inactive	TYR
-0.91	inactive	TYR
1.33	inactive	TMPRSS11F
0.3	inactive	TMPRSS11F
0.24	inactive	TMPRSS11F
1.27	inactive	TMPRSS11F
-1.1	inactive	ATP8B3
-1.09	inactive	ATP8B3
-1.37	inactive	ATP8B3
-1.24	inactive	ATP8B3
-0.24	inactive	NIM1K
0.6	inactive	NIM1K
-0.77	inactive	NIM1K
-0.5	inactive	NIM1K
0.79	inactive	TTC6
0.15	inactive	TTC6
1.92	inactive	TTC6
2.63	inactive	TTC6
0.73	inactive	PRSS3
3.62	active	PRSS3
0.21	inactive	PRSS3
-0.56	inactive	PRSS3
0	inactive	PRAC1
0.39	inactive	PRAC1
-1.48	inactive	PRAC1
-1.13	inactive	PRAC1
-0.55	inactive	MANBAL
1.21	inactive	MANBAL
-0.61	inactive	MANBAL
0.3	inactive	MANBAL
1.75	inactive	ARHGDIG
0	inactive	ARHGDIG
-0.09	inactive	ARHGDIG
0.16	inactive	ARHGDIG
2.54	inactive	OR11H4
-0.18	inactive	OR11H4
-0.19	inactive	OR11H4
1.14	inactive	OR11H4
1.39	inactive	ACTB
-0.41	inactive	ACTB
-0.34	inactive	ACTB
0.66	inactive	ACTB
-0.29	inactive	FHL5
0.46	inactive	FHL5
-0.34	inactive	FHL5
-1.43	inactive	FHL5
-0.64	inactive	IL36G
-0.68	inactive	IL36G
-0.23	inactive	IL36G
-0.56	inactive	IL36G
1.19	inactive	PRPH
0.49	inactive	PRPH
0.65	inactive	PRPH
-0.74	inactive	PRPH
-0.46	inactive	NEK2
0.73	inactive	NEK2
0.44	inactive	NEK2
-0.63	inactive	NEK2
1.07	inactive	PRKAA1
2.01	inactive	PRKAA1
2.23	inactive	PRKAA1
1.82	inactive	PRKAA1
-1.68	active	RNF11
-0.09	inactive	RNF11
1.17	inactive	RNF11
0.75	inactive	RNF11
